Some of these results come from one statement about several compounds together.
Columns and labels:
breast cancer = assay: Prevention of breast cancer in high risk women, transdermal patch; type: in vivo, human; details: transdermal patch 10 mg to 100 mg daily, one year study period
Procedure: This study investigated whether compounds 1 through 19 administered transdermally each day through a skin patch could be used to prevent breast cancer or metastatic cancers following cancer therapy. Patches were prepared that contained a lipophylic carrier cream which is readily absorbed through the skin. The cream comprised a glycerol cold cream which contained glycerin and peanut oil. A selected active compound from any one of compounds of the formulae 1 to 19 is mixed with the lipophylic cream such that each patch comprises 10 mg to 100 mg of active compound. The patch is applied to the skin each day and rapid absorption occurs. After two hours the patch is removed. Alternatively, the patch may be left on for a greater part of each day.

α-tocopheroxyl radicals = assay: Synergism with α-tocopherol (TRAA); type: biochemical; details: HTAC or SDS micelles

For C=C(C(=O)c1ccc(O)cc1O)c1ccc(O)cc1 [Compound 11, 2-dehydro-O-demethylangolensin], the “evidence of breast cancer or other metastatic cancer” value (“evidence” for short) (breast cancer) was “does not show any evidence of breast cancer or other metastatic cancer”.

With CC(C(=O)c1c(O)cc(O)cc1O)c1ccc(O)cc1 (centres unmarked) [Compound 14, 6-hydroxy-O-demethylangolensin] the “evidence” value (breast cancer) was “does not show any evidence of breast cancer or other metastatic cancer”.

For Oc1ccc(C2=Cc3ccc(O)cc3OC2)cc1 [Dehydroequol], the “synergistic interaction with α-tocopherol (TRAA)” value (“synergistic interaction” below) (α-tocopheroxyl radicals) was “interact synergistically with α-tocopherol”.

With O=C1c2ccc(O)cc2OCC1c1ccc(O)cc1 (centres unmarked) [Dihydrodaidzein, dihydrodaidzein] the “synergistic interaction” value (α-tocopheroxyl radicals) was “interact synergistically with α-tocopherol”.

Tetrahydrodaidzein was tested, and the “synergistic interaction” value (α-tocopheroxyl radicals) was “interact synergistically with α-tocopherol” and the “evidence” value (breast cancer) was “does not show any evidence of breast cancer or other metastatic cancer”.

In the case of dihydrodaidzein, the “synergistic interaction” value (α-tocopheroxyl radicals) is reported as “interact synergistically with α-tocopherol” and the “evidence” value (breast cancer) is reported as “does not show any evidence of breast cancer or other metastatic cancer”.
